Measured data: PubChem BioAssay AID504786 (Drosophila RNAi Screening Center, 2011)
In all, the deposit lists about 21,000 reagents; below is a random part of those with a known target gene and a result. 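Primary screen; positive scores mean lost reporter signal, so the sign may be inverted from the usual convention.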 Reagents against one gene are numbered here. Further read-outs or replicates are left out here.

Assay: 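Positive regulators of HIF-driven reporter output in Drosophila cells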 (primary screen)
System: Drosophila S2 cells with a stable HIF luciferase reporter
Reagent: long dsRNA against Drosophila genes, about 0.2 µg dsRNA per well of a 384-well plate
Duration: three days of knock-down, then 20 h of DFO before reading
Conditions: desferrioxamine (DFO) at 100 µM, an iron chelator that mimics hypoxia, for 20 h
Measured: 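HIF reporter luminescence in cells given 100 µM DFO for 20 h, using the mouse ldh-a hypoxia-response element, scored as per-plate z-scores; higher means greater loss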
Reading the numbers: z-score: higher = stronger loss of HIF reporter signal

gene knocked down,dsRNA no.,"z-score, replicate 1","z-score, replicate 2","z-score, replicate 3"
Ugt35E2 (UDP-glycosyltransferase family 35 member E2),1,-0.1,0.1,
CG31231,1,-0.4,-0.3,
RpS9 (Ribosomal protein S9),1,7.8,5.8,
CG10431,1,-0.3,-0.6,
Rim2 (Replication in mitochondria 2),1,-0.3,-0.1,
Rim2 (Replication in mitochondria 2),2,0,0.1,
Akt (Akt kinase),1,0.1,-0.1,
Rrp47 (Ribosomal RNA processing 47),1,-0.2,0.5,
Samuel,1,0,-0.3,
Samuel,2,-0.1,-0.2,
Samuel,3,-0.3,-0.3,
ldd (lipid droplet defective),1,-0.2,-0.3,
Ag5r2 (Antigen 5-related 2),1,-0.2,-0.4,
Tep2 (Thioester-containing protein 2),1,0,0.1,
Tep2 (Thioester-containing protein 2),2,0.2,0.5,
Octbeta2R (Octopamine beta2 receptor),1,-0.5,-0.7,
Octbeta2R (Octopamine beta2 receptor),2,-0.4,-0.6,
RNF220 (ring finger protein 220),1,-0.3,-0.6,
Ric (Ras-related protein interacting with calmodulin),1,-0.2,-0.1,
Sox100B,1,3.2,0.6,
Sox100B,2,-0.3,-0.1,
rsh (radish),1,-0.4,-0.2,
rsh (radish),2,-0.4,0.1,
CG14062,1,-0.3,-0.1,
CG10904,1,-0.2,0,
Hexo1 (Hexosaminidase 1),1,-0.3,-0.1,
H (Hairless),1,-0.3,-0.1,
CG13926,1,-0.2,0.1,
Rh6 (Rhodopsin 6),1,0.2,0,
TbCMF46,1,-0.3,-0.5,
CG9896,1,-0.9,-0.7,
CG9896,2,-0.3,-0.5,
Klp59D (Kinesin-like protein at 59D),1,-0.3,0,
Elba2 (Early boundary activity 2),1,-0.3,-0.2,
Rab32,1,0,0,
Rab32,2,-0.4,0,
CG4701,1,-0.3,1.9,
CG31816,1,0.5,0.5,
Thor,1,-0.4,-0.5,
RpS11 (Ribosomal protein S11),1,-0.4,-1,3.8
CG14229,1,0.1,-0.6,
"FucT6 (alpha1,6-fucosyltransferase)",1,-0.4,-0.7,
CG3526,1,-0.1,-0.3,
CG3526,2,-0.3,-0.6,
CG14397,1,-0.3,-0.7,
CG11695,1,0.4,0.9,
Vrp1 (Verprolin 1),1,-0.2,0,
Cpr76Bb (Cuticular protein 76Bb),1,-0.3,-0.1,
bma (black match),1,-0.3,0.7,
bma (black match),2,-0.3,-0.3,
alpha-Est5 (alpha-Esterase-5),1,-0.3,-0.4,
Ugt303B1 (UDP-glycosyltransferase family 303 member B1),1,-0.2,-0.3,
trsn (translin),1,-0.2,0.2,
hoka,1,-0.1,2.3,
CG10344,1,-0.2,0.1,
Argk2 (Arginine kinase 2),1,-0.1,-0.4,
